From PubChem BioAssay AID624297 (National Center for Advancing Translational Sciences (NCATS), 2012)
About 6,200 (1.8%) of roughly 340,000 compounds were called active. Inconclusive means that the source gave no clear call. Such entries were picked first, then a sample of the others. Calls come from the whole dose curve; as a rule, active = well fitted activation curve with a large enough effect; inconclusive = small, poorly fitted or top-dose-only effect; inactive = no such curve, though single readings can be large or run the other way. A potency beside an inconclusive call is a rough fit, not a confirmed value.

Experiment: A quantitative high throughput screen for small molecules that induce DNA re-replication in SW480 colon adenocarcinoma cells. For re-replication activation: % of control where 0% means no effect. Note: nearly all actives have a fitted effect of over 55% in size.
Settings: Hoechst DNA content imaging, 48 h; re-replication activation: at 46.1 µM (top of the series) unless noted
How it was run: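 Readout is total intensity of Hoechst-stained nuclei, excited at 405 nm and collected at 500-530 nm. Compound treatment lasted 48 hr at 37 C in 5% CO2 before staining.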
Potency is the fitted concentration of half-maximal effect.

Row | SMILES | Potency | re-replication activation
1 | CCOC(=O)c1cnc(Nc2nc3ccccc3o2)nc1C | inconclusive: 31.6 µM [activator, single point] | –
2 | Cc1ccc(-n2c(C)cc(C(=O)NS(=O)(=O)c3ccc(C)cc3)c2C)cc1 | inactive | –
3 | CCN(CC)CCCN(C(=O)c1ccc(OC)cc1)c1nc(-c2ccc(OC)cc2)cs1 | inconclusive: 29.1 µM [activator, single point] | –
4 | O=C(Nc1ccc(Oc2ccccc2)nc1)C1CCN(Cc2ccccc2)CC1 | inconclusive: 25.9 µM [activator, partial curve, poor fit] | –
5 | CCC(C(=O)Nc1cc(Cl)c(OC)cc1OC)c1ccccc1 (stereo not given) | inactive | –
6 | CCCN(CCC)C1CC(=O)N(Cc2ccccc2)C1=O (stereo not given) | inconclusive: 29.1 µM [activator, single point] | –
7 | CN1C(=O)/C(=C/c2cccc([N+](=O)[O-])c2)C(=O)N1c1ccccc1 | inconclusive: 25.9 µM [activator, partial curve, poor fit] | –
8 | O=C(/C=C/c1c(F)cccc1Cl)c1ccc(O)cc1 | inconclusive: 29.1 µM [activator, single point] | –
9 | O=C(Cc1ccccc1)NCCN1CCCC1 | inconclusive: 0.58 µM [activator, partial curve, poor fit] | –
10 | Cc1c(CCC(=O)NCCCn2ccnc2)c(=O)oc2c(C)c3occ(C(C)(C)C)c3cc12 | active: 20.6 µM | –
11 | COc1ccc(N(CC(=O)NC2CCCC2)C(=O)c2ccc(C)s2)c(OC)c1 | inactive | –
12 | CC(=O)C1=C(O)C(CSCc2ccccc2)N(C)C1=O (stereo not given) | inactive | –
13 | COc1ccc(CNC(=O)C(C)OC(=O)CO/N=C(\C)c2ccc3c(c2)OCO3)cc1 (stereo not given) | inconclusive: 32.6 µM [activator, single point] | –
14 | O=C(Nc1nccs1)C1CCN(S(=O)(=O)c2c(Cl)cccc2Cl)CC1 | inactive | –
15 | CC(C=Cc1ccccc1)=NNS(=O)(=O)c1ccc([N+](=O)[O-])cc1 | inconclusive: 13 µM [activator, partial curve, poor fit] | –
16 | COc1ccc(OC)c(/C=C/C(=O)N2CCN(S(=O)(=O)c3cc(C)ccc3C)CC2)c1 | inactive | –
17 | O=C(CNC(=O)c1ccco1)N=Nc1c(O)n(CCc2ccccc2)c2ccccc12 | active: 1.84 µM | –
18 | CCOC(=O)c1c(N/C=C(\C#N)c2nc(-c3ccc(OC(C)=O)cc3)cs2)sc2c1CCC2 | inconclusive: 6.51 µM [activator, single point] | –
19 | CC(C)c1ccc(NC(=O)c2cccc(Br)c2)cc1 | inactive | –
20 | Cc1nn(Cc2cccc(F)c2)c(C)c1NC(=O)c1c(Cl)cnn1C | inactive | –
21 | CCN(CC(=O)Nc1c(F)cccc1F)C(=O)c1ccc(=O)n(C)n1 | inactive | –
22 | O=C(NCCC1=CCCCC1)C1CCC(=O)N(Cc2ccc(Cl)cc2)C1 (stereo not given) | inactive | –
23 | O=C(CNC(=O)c1ccncc1)N/N=C/c1ccccc1[N+](=O)[O-] | inactive | –

3 compounds out of the list, ordered by count of non-hydrogen atoms, smallest number first.
Row | SMILES | Potency | re-replication activation
5 | CCC(C(=O)Nc1cc(Cl)c(OC)cc1OC)c1ccccc1 (stereo not given) | inactive | –
11 | COc1ccc(N(CC(=O)NC2CCCC2)C(=O)c2ccc(C)s2)c(OC)c1 | inactive | –
18 | CCOC(=O)c1c(N/C=C(\C#N)c2nc(-c3ccc(OC(C)=O)cc3)cs2)sc2c1CCC2 | inconclusive: 6.51 µM [activator, single point] | –

Continued.

Row | SMILES | Potency | re-replication activation
24 | COC(=O)c1ccc(-c2nc3cc(Cl)c(N)cc3s2)cc1 | inconclusive: 2.31 µM [activator, full curve, poor fit] | –
25 | Cc1ccc(C)c(N(C(=O)CNC(=O)c2ccco2)C(C(=O)NCC2CCCO2)c2ccccc2)c1 (stereo not given) | inconclusive: 1.16 µM [activator, full curve, poor fit] | –
26 | CCc1c(C)c(C#N)c2nc3ccccc3n2c1NCc1ccco1 | inconclusive: 29.1 µM [activator, single point] | –
27 | CC(C)(C)c1ccc(C(=O)NC(=O)CSc2n[nH]c(N)n2)cc1 | inconclusive: 29.1 µM [activator, single point] | –
28 | O=C(/C=C/c1ccccc1[N+](=O)[O-])c1ccc(F)cc1 | inconclusive: 18.4 µM [activator, partial curve, poor fit] | –
29 | O=C(Nc1ccc(CN2CCOCC2)cc1)c1ccc(-c2cccc(Cl)c2)o1 | inactive | –
30 | CN1/C(=C\C(=O)COc2ccc3c(c2)OCO3)C(C)(C)c2ccccc21 | inconclusive: 18.4 µM [activator, partial curve, poor fit] | –
31 | Cc1cc(NC(=O)C(C)SCC(=O)Nc2ccccc2C(C)(C)C)no1 (stereo not given) | inactive | –
32 | O=S(=O)(c1ccc(NC(=S)N/N=C/c2cccc(Oc3ccccc3)c2)cc1)N1CCOCC1 | inconclusive: 7.31 µM [activator, partial curve, poor fit] | –
33 | Cc1ccc2sc(N(CCCN(C)C)C(=O)c3ccc(S(=O)(=O)N(C)Cc4ccccc4)cc3)nc2c1C | inconclusive: 29.1 µM [activator, partial curve, poor fit] | –
34 | CCN(CC)C(=S)SCC(=O)c1ccccc1 | inconclusive: 20.6 µM [activator, partial curve, poor fit] | –
35 | Cc1ccc(-c2noc(-c3ccno3)n2)cc1 | inconclusive: 18.4 µM [activator, single point] | –
36 | Cc1ccc(OCCCCCCN2CCNCC2)cc1 | inconclusive: 29.1 µM [activator, single point] | –
37 | Cc1nn(CC(=O)NC(=O)c2ccccc2)c(C)c1[N+](=O)[O-] | inconclusive: 6.51 µM [activator, partial curve, poor fit] | –
38 | Cc1ccccc1-n1nnnc1Sc1nnnn1-c1ccccc1 | inconclusive: 16.4 µM [activator, single point] | –
39 | COc1ccc(/C=C\C(=O)c2c(O)ccc3c(C)cc(=O)oc23)cc1OC | inconclusive: 29.1 µM [activator, single point] | –
40 | CN1CCN(c2ccc(NC(=O)c3ccc4c(c3)[nH]c(=O)n4Cc3ccc(F)cc3)cc2)CC1 | inconclusive: 23.1 µM [activator, partial curve, poor fit] | –
41 | O=C(NC1CCCCC1)c1sc(=S)n2c1[nH]c(=O)c1ccccc12 | inactive | –
42 | CCOC(=O)c1ccc(-c2cc(C)no2)[nH]1 | inactive | –
43 | CCC1CN(C(=O)N2CCC(C(=O)NCc3ccc(OC)cc3OC)CC2)c2ccccc2O1 (stereo not given) | – | inconclusive: 33.2% [activator]
44 | CCOc1ccc(N(Cc2cc3cc(C)ccc3[nH]c2=O)S(=O)(=O)c2ccccc2)cc1 | inactive | –
45 | COc1ccccc1N(Cc1ccccc1)S(=O)(=O)c1cccc(C(=O)Nc2ccc(C(C)=O)cc2)c1 | inactive | –
